## Library screening results

Amino acid sequences for entries named in this document (tags omitted).
UniProt E9BF75, entry or part of it: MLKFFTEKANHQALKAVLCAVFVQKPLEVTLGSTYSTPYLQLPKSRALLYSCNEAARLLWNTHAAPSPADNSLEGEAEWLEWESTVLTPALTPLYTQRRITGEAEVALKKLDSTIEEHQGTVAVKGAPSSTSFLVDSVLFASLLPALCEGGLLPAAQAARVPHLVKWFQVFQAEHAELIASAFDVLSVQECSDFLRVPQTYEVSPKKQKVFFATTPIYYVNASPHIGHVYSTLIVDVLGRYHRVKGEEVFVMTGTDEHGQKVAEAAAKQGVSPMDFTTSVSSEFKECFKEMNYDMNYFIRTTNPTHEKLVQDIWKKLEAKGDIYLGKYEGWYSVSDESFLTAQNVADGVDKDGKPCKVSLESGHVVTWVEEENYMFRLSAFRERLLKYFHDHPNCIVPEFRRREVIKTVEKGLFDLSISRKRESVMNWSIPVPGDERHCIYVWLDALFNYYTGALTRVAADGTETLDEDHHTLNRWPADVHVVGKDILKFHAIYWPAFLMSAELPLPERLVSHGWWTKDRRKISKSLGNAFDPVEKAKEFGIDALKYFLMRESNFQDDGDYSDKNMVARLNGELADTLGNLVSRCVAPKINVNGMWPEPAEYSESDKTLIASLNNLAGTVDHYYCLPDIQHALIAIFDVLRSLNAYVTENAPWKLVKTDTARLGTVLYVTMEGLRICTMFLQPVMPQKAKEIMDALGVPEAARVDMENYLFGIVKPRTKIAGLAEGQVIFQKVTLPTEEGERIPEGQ

Results are percentages, as filed.
The controls that fix the scale are not given in the record; negative values are as filed.
The compounds are a random part of those screened.

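Primary screen of methionyl-tRNA synthetase; the read-out is not stated. Target: Methionyl-tRNA synthetase (putative), Leishmania donovani (UniProt E9BF75). The test concentration is not given. The values are filed as inhibition. Of about 68,000 compounds tested this way, about 24 (0.035%) reached 50% or more in at least one test.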

| SMILES | inhibition |
|---|---|
| `Cc1nc(-c2cccc(C(=O)O)c2)cc(C2CCCN(C(C)C)C2)n1` (centres undefined) | 4.612 |
| `CC(C)NC(=O)[C@@H]1CCO[C@@H]2CCN(c3ncccn3)C[C@H]21` | 18.83 |
| `Cc1nc(CN(C)C(=O)CNC(=O)c2ccc(C#N)cc2)cs1` | 0 |
| `c1cc(C2CC2)n2cnc(C3CN(Cc4ccncc4)CCO3)c2c1` (centres undefined) | 17.75 |
| `O=C1[C@H]2CN(c3ncccn3)C[C@H]2CN1CC1CC1` | 13.17 |
| `Cc1ccc(C)c(C(=O)NCC(c2cccn2C)N2CCCCCC2)c1` (centres undefined) | 11.7 |
| `Cc1cc(NC(=O)c2nc(N3CCCC3)ncc2Cl)nc(C(C)C)n1` | 13.33 |
| `Cc1ccc(C(=O)N(C2CC2)C2CC(=O)NC2=O)cc1F` (centres undefined) | 21.13 |
| `Cc1cc(F)c2c(c1)CCCN2Cc1cc(=O)n(C)c(=O)n1C` | -22.06 |
| `CC(C)(C)n1nnnc1CN(Cc1ccccc1)Cc1ccccc1Cl` | 10.13 |
| `Cc1occc(=O)c1OCc1noc(C(=O)NCC2CC2)n1` | 12.74 |
| `CCCNC(=O)c1cc2c(c3ccccc3n2C)n1C(=O)N(C)C` | 13.3 |
| `Cc1ccc(OCC(=O)NC2(C#N)CCSCC2)cc1C` | 5.59 |
| `Cc1ccc(F)cc1C(=O)N1CCOCC12CCCC2` | 16.91 |
| `CCN(CC)c1ccc(CNC(=O)c2cnc(C)cn2)cn1` | 8.101 |
| `C[C@H]1C[C@@H]2CCN(C(=O)c3cnccn3)C[C@H]2O1` | 2.017 |
| `Cc1nccn1CCCC(=O)N1CCC(Nc2cccnn2)CC1` | 10.46 |
| `Cc1noc(C2CCC3(CCN(C(=O)c4cnccn4)CC3)O2)n1` (centres undefined) | 4.061 |
| `CSCCNC(=O)c1ccc(OC2CCN(CC(C)(C)C)CC2)c(Cl)c1` | 18.22 |
| `Cc1ccccc1CN(CCN(C)C)Cc1ncc[nH]1` | 9.045 |
| `CC(C)N(C)[C@@H]1CCN(c2ncccn2)[C@H]1Cc1ccncc1` | 12.05 |
| `COc1ccccc1CNC1(CCO)CCOCC1` | 12.41 |
| `CC(C)C(O)C1(CNC(=O)Nc2ccc(CN3CCOC3=O)cc2)CC1` (centres undefined) | 4.869 |
| `N#Cc1cc(C#N)c(SCC(=O)NCc2ccc(F)cc2)nc1N` | 17.62 |
| `COc1cccc(Cn2c(=O)n(C)c(=O)c3sccc32)c1` | 4.969 |
| `Cc1nnsc1C(=O)N1CC(c2nc3ccccc3[nH]2)C1` | 14.98 |
| `CCC1(CO)CCCN(Cc2nccn2Cc2ccccc2)C1` (centres undefined) | 11.39 |
| `CCc1nc(C)c(C(=O)NCCNc2ncccn2)s1` | 18.11 |
| `O=C(c1ccoc1)N1CCn2cnc(COCC3CC3)c2C1` | 10.44 |
| `N#CCCN(Cc1cccnc1)C(=O)c1ccc(OCC2CC2)cc1` | -0.4819 |
| `CN(C(=O)CCNC(=O)C1COc2ccccc21)c1ccccc1` (centres undefined) | 15.97 |
| `COCC1CC2(CCN(Cc3nc(C)cs3)CC2)CO1` (centres undefined) | 11.73 |
| `CN1CCN(CC2CCN(C(=O)CCC3CCCCC3)CC2)CC1` | 7.902 |
| `O=C(Cc1ccco1)N1C[C@H]2CCC[C@@]2(COCc2cccnc2)C1` | 20.17 |
| `O=C(NCC1(c2ccc(F)cc2)CCC1)N1CCC2(C1)OCCO2` | 12.93 |
| `NCc1ccc(OC(F)F)cc1OC(F)F` | 11.72 |
| `CCc1ncc2c(n1)CN(Cc1nc(-c3ccccn3)no1)CC2` | 13.39 |
| `COCCNc1nc(-c2ccc(S(=O)(=O)N3CCCCCC3)cc2)cs1` | 14.5 |
| `Cc1noc(C)c1CN1CC2(CCCCN2C)CC1=O` (centres undefined) | -3.114 |
| `Cc1occc1C(=O)N1CCC2(CCCN(Cc3nccs3)C2)C1` (centres undefined) | 10.75 |
| `COC1CCCN(C(=O)NCC(F)F)C1` (centres undefined) | 16.37 |
| `COC(=O)c1ccc(C2SCC(=O)Nc3ccsc32)cc1` (centres undefined) | -0.2597 |
| `CCC(C)N1Cc2c(C(=O)N3CCOCC3)nn(C)c2C1` (centres undefined) | 9.302 |
| `Cc1cc(NC(=O)CN2CCCC2Cn2nc(C)nc2C)n(C)n1` (centres undefined) | 15.43 |
| `O=C(Nc1ncnc2c1CCC2)c1ccc2c(c1)OCO2` | 4.556 |
| `C=C(C)CN1CCOC(Cn2cncn2)C1` (centres undefined) | 3.559 |
| `Cc1ccc(CN2CCC3(C2)C(=O)N(CC(C)C)c2ccccc23)s1` (centres undefined) | 19.05 |
| `O=C(NCc1ccccc1)[C@@H]1Cc2[nH]cnc2CN1CC1CC1` | 17.03 |
| `Cc1ccc(CN(CCN(C)C)Cc2ncc[nH]2)s1` | 3.015 |
| `Cc1cnn(CCNCc2nc(CNC(=O)c3ccccc3)no2)c1` | 12.85 |
| `c1cc(NCc2cscn2)cc(OCCN2CCCCC2)c1` | 13.64 |
| `Cn1ccnc1CN1CCc2c(COCC3CC3)nn(C)c2C1` | 14.84 |
| `COc1c[nH]c(C(=O)Nc2nc(C)cs2)cc1=O` | 17.27 |
| `Cc1cc(C2CCN(C(=O)c3cnn(C)c3)CC2)ccn1` | 17.19 |
| `O=C1COc2ccccc2N1CCCn1cnnn1` | 9.278 |
| `CC(=O)NC[C@]1(O)CCN(C(=O)c2ccc3c(c2)CCC3)C[C@H]1O` | 8.235 |
| `CCN1CC(C(=O)N2CC(Oc3ccccc3Cl)C2)CC1=O` (centres undefined) | 18.44 |
| `Cc1ccc(-c2nc(CN3CCOC(c4ccccc4)C3)cs2)o1` (centres undefined) | 15.58 |
| `CCc1cc(CN(C)C(=O)CN2CC(Cc3ccccc3)CC2=O)on1` (centres undefined) | 13.19 |
| `O=c1cc(CN2CC[C@H]3CC[C@@H](C2)N3)c2cccc3c2n1CCC3` | 10.66 |
| `CC(C)C(=O)N1CCN(Cc2cc(-c3ccncc3)nn2C)CC1` | 11.3 |
| `COC[C@H]1CC[C@@H]2[C@@H](CCN2Cc2ccccn2)O1` | 2.488 |
| `c1ccc2c(N3CCSCC3)cnnc2c1` | 17.29 |
| `CS(=O)(=O)NCc1cc(-c2cc(F)cc(F)c2)nc(N2CCOCC2)n1` | 11.41 |
| `CCN(Cc1noc(CC(C)C)n1)Cc1ncccc1C(=O)O` | 4.359 |
| `CC(=O)N1CCCC(C(=O)NCCc2csc(-c3ccncc3)n2)C1` (centres undefined) | 12.81 |
| `c1ncn(Cc2cn3c(n2)CN(CC2CCCC2)CC3)n1` | 10.65 |
| `COc1ccc(-c2nccn2CC(O)CN2CCCC2)c(F)c1` (centres undefined) | 10.07 |
| `CC(C)c1nc(CN2CCOC(Cn3cncn3)C2)no1` (centres undefined) | 10.61 |
| `Cc1nc(CC(=O)N2CCN(CCOc3ccccc3)CC2)cs1` | 14.29 |
| `CC/C=C(/C)C(=O)N1CSCC1C(=O)NC1=NCCS1` (centres undefined) | 15.06 |
| `CCc1cnc(N2CCC3(CC(=O)N(Cc4csc(C)n4)C3)C2)nc1` (centres undefined) | 18.16 |
| `Cc1noc(C)c1CCC(=O)N1CCCN(C)CC1` | 17.49 |
| `O=C(NCCC(O)c1ccoc1)Nc1cccs1` (centres undefined) | 20.33 |

For reference, 5 entries once more:

For Cc1ccc(C)c(C(=O)NCC(c2cccn2C)N2CCCCCC2)c1 (centres undefined) the result was 11.7%.
For Cc1ccc(CN(CCN(C)C)Cc2ncc[nH]2)s1 the result was 3.015%.
For Cc1occc1C(=O)N1CCC2(CCCN(Cc3nccs3)C2)C1 (centres undefined) the result was 10.75%.
For Cc1ccc(OCC(=O)NC2(C#N)CCSCC2)cc1C the result was 5.59%.
For Cc1ccc(F)cc1C(=O)N1CCOCC12CCCC2 the result was 16.91%.

The values are deposited in ChEMBL (CHEMBL3988442, “University of Dundee, Small-Polar-MMV Screening Library” (2021)).